Assay results from patent US20120058507A1, “Clonal Derivation and Cell Culture quality Control Screening Methods” (SRU Biosystems, Inc., priority 2009, published 2012).
At least one structure is not confirmed: it was looked up by name or label, or the drawing left a doubt.

What was measured:
M5/RBL cells = test: Label-free response of 1:1 mixed RBL and M5/RBL cells on BIND SCANNER; assay type: cell-based; details: RBL and M5/RBL cells mixed 1:1
Description: RBL and M5/RBL cells were mixed in a 1:1 ratio and were plated in colorimetric resonant reflectance biosensor wells. The cells were allowed to attach to the biosensor and the attachment reaction was detected on a BIND® SCANNER. Acetylcholine was added to the biosensor surface. […] Approximately 50% of a 1:1 mixed population of RBL+M5/RBL cells responded to acetylcholine. The responding cells can be gated and analyzed for quantitative responses (e.g., responses to additional test reagents or stimuli) independent of non-responding population. Therefore, the presence of different types of cells on a biosensor can be detected when their response to a ligand is known.

Human MSCs = test: Human MSC osteoblast differentiation, label-free on BIND SCANNER; assay type: cell-based; details: cells incubated following ADK siRNA transfection

CC(=O)OCC[N+](C)(C)C [acetylcholine]
Cell type reacting to ligand (M5/RBL cells): Only M5/RBL cells react

C=C[C@@]1(C)CC(=O)[C@]2(O)[C@@]3(C)[C@@H](O)CCC(C)(C)[C@@H]3[C@H](O)[C@H](OC(C)=O)[C@@]2(C)O1 [forskolin]
Effect on accelerated differentiation phenotype of ADK siRNA (Human MSCs): blocked
